Data from PubChem BioAssay AID504594 (Broad Institute, 2011).
Hit rate of the full screen: of about 2,000 compounds, fewer than 10 were called active.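 How the source made its calls: active means growth inhibition of at least 75% in every replicate, which also brings the mean inhibition to 75% or more; inconclusive means mean inhibition 75% or more but some replicate under 75%; inactive means the rest.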 Some of the results follow.

Test: reduced viability of yeast carrying PfHsp90 – S. cerevisiae, BacTiter-Glo luminescence, antimalarial PfHsp90 inhibitor project, primary screen (AID 504594);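 further: 0% = DMSO neutral control wells and 100% = 20 µM radicicol control wells; higher value means stronger growth inhibition because the sign is flipped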
Conditions: S. cerevisiae expressing PfHsp90, BacTiter-Glo growth, 48 h; at 9.4 µM; active compounds read high

SMILES | growth inhibition
O=S(=O)(c1ccc(F)cc1)N1CCCCC1c1cccnc1 (stereo unspecified) | inactive: -1.69%
CC(=O)C1=C(C)OC(N)=C(C(=O)OC(C)C)C12C(=O)Nc1ccccc12 (stereo unspecified) | inactive: 5.93%
[N-]=[N+]=CC(=O)OC[C@H](N)C(=O)O | inactive: -4.59%
Fc1ccc(C(OCCN2CCCC2)c2ccc(Br)cc2)cc1 (stereo unspecified) | inactive: 1.04%
CCOC(=O)C1=C(C)OC(N)=C(C(=O)OCC)[C@@]12C(=O)N(CC(N)=O)c1ccccc12 | inactive: -3.76%
C[N+]1(C)[C@@H]2CC[C@H]1CC(OC(=O)C(CO)c1ccccc1)C2 (stereo partly specified) | inactive: 4.41%
C=C1[C@@H](C)[C@H]2[C@H](Cc3ccccc3)NC(=O)[C@]23OC(=O)/C=C/[C@H](O)CCC[C@@H](C)C/C=C/[C@H]3[C@@H]1O | inactive: 0.455%
CC/C(=C\C=C\[C@@H]1C=C[C@@H]2CCC[C@H]2[C@@H]1C(=O)c1ccc[nH]1)[C@@H]1O[C@@H]([C@@H](C)C(=O)O)CC[C@@H]1C | inactive: -7.02%
CN1CCN(C(=O)OC2c3nccnc3C(=O)N2c2ccc(Cl)cn2)CC1 (stereo unspecified) | inactive: 6.28%
CCn1ccnc1CN1CCCC(C(=O)c2cc(F)ccc2OC)C1 (stereo unspecified) | inactive: -6.85%
CCNC(=O)[C@H]1O[C@@H](n2cnc3c(N)ncnc32)[C@H](O)[C@@H]1O | inactive: -1%
Cc1cccc(C)c1NC1=NCCCS1 | inactive: -4.38%
Cc1cc(OCc2cc(C(=O)O)oc2C)c2c3c(c(=O)oc2c1)CCCC3 | inactive: -7.84%
NC(=O)CN1CCCC1=O | inactive: -9.68%
O=C1NC(=O)C2(Cc3ccccc3N3CCCC32)C(=O)N1c1ccc(Cl)cc1 (stereo unspecified) | inactive: -0.293%
Cc1c2ccncc2c(C)c2c1[nH]c1ccccc12 | inactive: 2.27%
Cc1nc2ccccc2c(=O)n1-c1ccc(C(=O)O)cc1 | inactive: -0.979%
COc1cc(/C=C2\C(=O)NC(=O)N(c3ccccc3)C2=O)c([N+](=O)[O-])cc1OC | inactive: -1.53%
CN1C2CCC1CC(OC(=O)CCN1CCCC1)C2 (stereo unspecified) | inactive: 0.059%
O=C1C(=O)c2ccccc2-c2ccccc21 | inactive: 6.98%
CCOC(=O)C(C)Oc1cc(C)cc2oc(=O)c3c(c12)CCCC3 (stereo unspecified) | inactive: -17.7%

SMILES | growth inhibition
CN1CC[C@@]23CCCC[C@@H]2[C@@H]1Cc1ccc(O)cc13 | inactive: -15%
C[N+](C)(C)Cc1ccccc1 | inactive: 4.06%
CCC(COC(=O)c1cc(OC)c(OC)c(OC)c1)(c1ccccc1)N(C)C (stereo unspecified) | inactive: -0.969%
O=c1[nH]c(=S)n(-c2ccccc2)c(O)c1/C=N/N1CCCCC1c1cccnc1 (stereo unspecified) | inactive: -1.72%
COC(=O)C1=C(C)NC(C)=C(C(=O)OC)C1c1ccccc1[N+](=O)[O-] | inactive: -1.79%
Cc1ccc2c(c1)C1CN(C)CCC1N2C(=O)Nc1cccc(Cl)c1 (stereo unspecified) | inactive: -6.57%
CCN(CC)CCOC(=O)C(O)(c1ccccc1)c1ccccc1 | inactive: -5.93%
C[C@]12CC[C@@H]3c4ccc(O)c(O)c4CC[C@H]3[C@@H]1CC[C@@H]2O | inactive: -9.37%
O=C1C=Cc2ccccc2C1=O | inactive: 3.99%
C[C@]12CCC(=O)C(O)=C1CC[C@@H]1[C@@H]2CC[C@]2(C)C(=O)CC[C@@H]12 | inactive: -2.97%
CC(=O)c1ccc(-c2ccccc2)cc1 | inactive: -6.42%
CCCC(=O)OCC[N+](C)(C)C | inactive: -12.8%
CC(C)C(=O)Nc1ccc(S(=O)(=O)N2CC3CC(C2)c2cccc(=O)n2C3)cc1 (stereo unspecified) | inactive: 0.68%
O=Cc1cn(Cc2ccc(F)cc2)c2ccccc12 | inactive: -5.49%
c1ccc2c(c1)[nH]c1cnccc12 | inactive: -1.24%
COc1ccccc1CN1CCCCC1c1cccnc1 (stereo unspecified) | inactive: 7.73%
Nc1ccc([As](=O)(O)O)cc1 | inactive: -2.46%
CC12CN3CC(C)(CN(C1)C3c1cccs1)C2=O (stereo unspecified) | inactive: 1.89%
O=c1[nH]c2ccccc2n1C1CCN(CCCC(c2ccc(F)cc2)c2ccc(F)cc2)CC1 | inactive: -4.94%
CC(=O)Nc1cc([As](=O)(O)O)ccc1O | inactive: 0.452%
Cc1cc(Cl)ccc1OC(C)C(=O)O (stereo unspecified) | inactive: -11.9%

Structures shown so far containing a nitro group on carbon (two):
SMILES | growth inhibition
COc1cc(/C=C2\C(=O)NC(=O)N(c3ccccc3)C2=O)c([N+](=O)[O-])cc1OC | inactive: -1.53%
COC(=O)C1=C(C)NC(C)=C(C(=O)OC)C1c1ccccc1[N+](=O)[O-] | inactive: -1.79%

Next structures follow:

SMILES | growth inhibition
CC12CN3CC(C)(CN(C1)C3c1cccnc1)C2=O (stereo unspecified) | inactive: -1.32%
C[C@]12CCC(=O)C=C1CCC1C2CC[C@@]2(C)C1CC[C@@]2(O)CC#N (stereo partly specified) | inactive: -4.64%
CN[C@H](C)[C@H](O)c1ccccc1 | inactive: 10.8%
CN1[C@@H]2CC[C@H]1CC(OC(=O)C1C=Nc3ccccc31)C2 (stereo partly specified) | inactive: -13.3%
CCCC(C)(COC(N)=O)COC(=O)NC(C)C (stereo unspecified) | inactive: 14.3%
C[C@]12CCC(=O)C=C1CC[C@@H]1[C@@H]2CC[C@]2(C)C(=O)CC[C@@H]12 | inactive: -1.01%
OC(c1ccccc1)(c1ccccc1)C1CCNCC1 | inactive: -11.9%
COc1ccc(-c2nc3ccccc3c(=O)o2)cc1 | inactive: 12.1%
C[C@H]1OC[C@@H](C[N+](C)(C)C)O1 | inactive: 2.67%
O=C1CSC2N1CCNC21CCCCC1 (stereo unspecified) | inactive: -18.1%
COc1cccc(Oc2c(C)oc3cc(OC(=O)N(C)C)ccc3c2=O)c1 | inactive: -7.36%
COc1ccc(OC)c(C(O)C(C)N)c1 (stereo unspecified) | inactive: 3.01%
COc1ccc(CN2CC3CC(C2)c2cccc(=O)n2C3)cc1OC (stereo unspecified) | inactive: -2.34%
COc1ccc(NC2=NCC(C)S2)cc1 (stereo unspecified) | inactive: 0.069%
c1ccc2c3c([nH]c2c1)CNCC3 | inactive: 5.45%
CN(C)[C@@H]1C(=O)C(C(N)=O)=C(O)[C@@]2(O)C(=O)C3=C(O)c4c(O)cccc4[C@@](C)(O)[C@H]3[C@H](O)[C@@H]12 | inactive: -12.9%
Cn1c(O)c(C=NCCc2c[nH]c3ccccc23)c(=O)n(C)c1=O | inactive: -4.75%
CCOc1ccc(N2C(=O)NC(=O)/C(=C\c3cc(OC)c(OC)cc3[N+](=O)[O-])C2=O)cc1 | inactive: -0.939%
CC(C)CCC1(CN2CCCC2=O)C(=O)NC(=O)NC1=O | inactive: 1.6%
